# Measurements published in PMC5428262.
# Molecular target: GFP-tagged tomosyn1 (GFP-Tomosyn1), wild type (rat)
# Experiment: affinity purification with mass spectrometry; GFP-tomosyn1 expressed in INS 832/13 cells under standard culture conditions, immunoprecipitation coupled to LC MS/MS
binder,measurement,value
"secretagogin (INS 832/13 cells) (protein, UniProt Q6R556 1-276) MDNAHRQTQAHLDAACFWQIWQRFDKDEKGYIKETELDAFFDDLLAKFGIEDTLMEENVQKMKEQLMVGHDISKEGRILMKELASMFLSEDENFLLFFRLETPLDNSVEFMQIWRKYDADSSGFISAAELSNFLRDLFLHHKKVISEAELEEYTSTMEKIFDRNKDGRLDLNDLARILALQENFLLQFKMDASSTEERKRDFEKIFAHYDVSKTGALEGPEVDGFVKDMMELVQPSISGVDLDKFREILLRHCDVNKDGKIQKSELALCLGLKINP",binding,binds

# No constants are given. Whether binding was seen depends on the method and setting. In cells and extracts the contact can be indirect. These calls come from enrichment with a bait or labelling near it, and not all partners need be listed. Where a sequence is shown, tags or fusion partners need not be part of it.
